Results reported in US6642250B2, “1,8-naphthyridin-2(1H)-one derivatives” (Grelan Pharmaceutical Co., Ltd., priority 1999, dated 2003).
At least one read-out could not be matched to a standard name with certainty.

System: actively sensitized guinea pigs
Test: Inhibition of antigen-induced immediate asthmatic response (airway resistance, Konzett-Rossler method)
Format: in vivo, guinea pig
Settings: 3 mg/kg, orally, 60 minutes prior to antigen-challenge, average of 3 animals
Protocol: (1) Active Sensitization of Guinea Pigs
Male Hartley outbred guinea pigs were sensitized by administering intraperitoneally physiological saline (0.5 ml) containing ovalbumin (1 mg, antigen) and 5×10^9 inactivated Bordetella pertussis dead cells (adjuvant).
Eleven to thirteen days after the first sensitization, 0.05 ml of an ovalbumin solution (1 mg/ml) (ovalbumin is dissolved in physiological saline) was administered to the lateroabdominal region of each guinea pig intracutaneously. An establishment of sensitization was checked relying on cutaneous reaction. […]
Thirteen days after the final sensitization, guinea pigs fasted overnight, and were on the next day anesthetized with a pentobarbital solution (60 mg/1.2 ml/kg, dissolved in physiological saline, intraperitoneal administration). […] From a catheter inserted into a left carotid artery, blood pressures were monitored with a blood pressure measurement unit (AP641G, NEC Corp., Japan) via a blood pressure transducer (TP-300T, Nihon Kohden, Japan), and heart rates were recorded on a thermal recorder (WT-685G, Nihon Kohden, Japan), relying on blood pressure pulse waves after being led to a cardiograph unit (AT601G, Nihon Kohden, Japan). […]
Each percent reduction of increase in airway resistance (each test compound-administered group versus control group) was calculated according to the equation given below. […]

Structure (SMILES): COc1ccc(C2CNC(=O)C2)cc1OC1CCCC1 (single isomer, unassigned) [Rolipram, rolipram, reference compound]
- % Reduction of Increase in Airway Resistance: 58 to 92%
